Results are given in words; binding and its absence hold for the method and conditions named. In cells and extracts the contact can be indirect. Some results given as binding are weak or reduced against the parent protein; the word gives no strength. Tags and fused reporters may be left off the sequences shown.

The assay has as its target T1, Hmg2-GFP (yeast (strains derived from S288C or Resgen)) (UniProt P12684).
T1 sequence: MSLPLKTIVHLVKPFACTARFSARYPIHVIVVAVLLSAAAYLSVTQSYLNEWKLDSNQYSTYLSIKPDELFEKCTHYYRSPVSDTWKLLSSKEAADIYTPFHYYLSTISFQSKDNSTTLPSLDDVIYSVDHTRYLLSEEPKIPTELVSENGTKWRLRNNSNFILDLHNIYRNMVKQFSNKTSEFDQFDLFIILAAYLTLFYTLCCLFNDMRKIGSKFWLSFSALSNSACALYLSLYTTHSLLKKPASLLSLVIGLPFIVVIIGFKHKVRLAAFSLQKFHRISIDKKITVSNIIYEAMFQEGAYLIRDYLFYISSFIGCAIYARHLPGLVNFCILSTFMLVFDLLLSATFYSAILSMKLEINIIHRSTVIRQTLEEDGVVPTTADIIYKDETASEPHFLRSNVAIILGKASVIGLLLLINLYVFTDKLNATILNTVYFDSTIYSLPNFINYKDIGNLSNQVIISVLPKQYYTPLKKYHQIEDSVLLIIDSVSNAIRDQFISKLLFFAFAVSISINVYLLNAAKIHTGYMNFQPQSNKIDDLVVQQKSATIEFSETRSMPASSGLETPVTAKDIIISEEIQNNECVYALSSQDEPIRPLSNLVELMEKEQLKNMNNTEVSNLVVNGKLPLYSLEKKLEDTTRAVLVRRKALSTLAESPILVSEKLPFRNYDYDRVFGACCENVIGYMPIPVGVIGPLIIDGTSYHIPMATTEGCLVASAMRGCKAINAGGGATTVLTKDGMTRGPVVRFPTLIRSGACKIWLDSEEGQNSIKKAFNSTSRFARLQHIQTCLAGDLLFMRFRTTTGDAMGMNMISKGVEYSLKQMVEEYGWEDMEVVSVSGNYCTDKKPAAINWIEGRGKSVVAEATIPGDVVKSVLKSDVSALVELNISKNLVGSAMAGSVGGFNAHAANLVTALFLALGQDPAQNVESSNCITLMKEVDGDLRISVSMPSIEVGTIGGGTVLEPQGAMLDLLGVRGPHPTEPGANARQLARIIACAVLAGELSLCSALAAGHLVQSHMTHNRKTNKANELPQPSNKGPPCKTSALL
Nature of the assay: co-IP; yeast microsomes solubilised in 1% DDM in XL buffer (1 h, 4°C), cleared by centrifugation and ultracentrifugation; supernatant incubated overnight at 4°C with GFP-Trap agarose to capture Hmg2-GFP; immunoblot with anti-GFP, anti-HA and anti-Sec61; cells not expressing Hmg2-GFP as negative control.

B1: Dfm1-HA (protein, UniProt Q12743 1-341)
chain: MAGPRNVRTLHGNGGRNNDVMGPKEFWLNIPPITRTLFTLAIVMTIVGRLNLINPWYFIYVWNLTFKKVQIWRLLTSCVMLSSRAMPALMELYSIYDRSSQLERGHFGPGLSNRRGPMVTVDYAYYLCFCILAITTATTIIYGSYYPVVLTSGFISCITYTWSIDNANVQIMFYGLIPVWGKYFPLIQLFISFVFNEGDFVISLIGFTTGYLYTCLDTHTLGPIWGMISRKADPTYGISPNGKFSTPWWFTSLYARITGAHNETATFNNNFANVPSSQRETRTFSGRGQRLGTAPATLSQTSGTDSGRASGSQLRSGPSNLNQFQGRGQRVGQTNSPSDSQ
In the case of B1, the binding entry is reported as “binds”.

Values taken from paper PMC9894555.
